Results are given in words; binding and its absence hold for the method and conditions named. Binding seen in cells or lysates may run through a third protein. A yes stands for co-enrichment or nearness to the bait. Other partners may have been found.
Molecular target: endogenous MVP (native vault) of A549 cells (human (endogenous in A549)) (UniProt Q14764)
Assay: affinity purification with mass spectrometry

By UniProt entry, the sequences of proteins in these tests, tags left out.
UniProt Q14974: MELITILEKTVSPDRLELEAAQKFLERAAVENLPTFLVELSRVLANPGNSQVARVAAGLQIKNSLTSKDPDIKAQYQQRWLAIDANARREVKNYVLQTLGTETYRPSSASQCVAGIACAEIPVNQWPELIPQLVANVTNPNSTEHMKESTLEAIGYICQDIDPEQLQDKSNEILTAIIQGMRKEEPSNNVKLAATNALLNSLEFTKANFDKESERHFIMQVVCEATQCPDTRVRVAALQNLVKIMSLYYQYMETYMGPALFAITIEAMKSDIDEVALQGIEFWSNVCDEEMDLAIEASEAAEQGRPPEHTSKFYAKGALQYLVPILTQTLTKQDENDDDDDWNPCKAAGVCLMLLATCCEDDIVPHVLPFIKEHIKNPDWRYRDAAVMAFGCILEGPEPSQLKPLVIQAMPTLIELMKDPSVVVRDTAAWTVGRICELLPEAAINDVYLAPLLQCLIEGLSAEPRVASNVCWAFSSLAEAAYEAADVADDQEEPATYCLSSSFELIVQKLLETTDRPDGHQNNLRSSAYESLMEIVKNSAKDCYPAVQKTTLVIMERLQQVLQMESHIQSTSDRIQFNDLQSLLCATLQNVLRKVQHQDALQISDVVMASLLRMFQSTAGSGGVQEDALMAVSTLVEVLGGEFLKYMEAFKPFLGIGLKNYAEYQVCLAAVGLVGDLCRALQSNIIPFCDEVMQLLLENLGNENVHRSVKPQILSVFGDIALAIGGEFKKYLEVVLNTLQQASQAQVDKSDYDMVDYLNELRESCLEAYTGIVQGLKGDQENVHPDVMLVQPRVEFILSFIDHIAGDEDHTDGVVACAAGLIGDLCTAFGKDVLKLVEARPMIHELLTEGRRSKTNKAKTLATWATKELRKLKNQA
UniProt O94851: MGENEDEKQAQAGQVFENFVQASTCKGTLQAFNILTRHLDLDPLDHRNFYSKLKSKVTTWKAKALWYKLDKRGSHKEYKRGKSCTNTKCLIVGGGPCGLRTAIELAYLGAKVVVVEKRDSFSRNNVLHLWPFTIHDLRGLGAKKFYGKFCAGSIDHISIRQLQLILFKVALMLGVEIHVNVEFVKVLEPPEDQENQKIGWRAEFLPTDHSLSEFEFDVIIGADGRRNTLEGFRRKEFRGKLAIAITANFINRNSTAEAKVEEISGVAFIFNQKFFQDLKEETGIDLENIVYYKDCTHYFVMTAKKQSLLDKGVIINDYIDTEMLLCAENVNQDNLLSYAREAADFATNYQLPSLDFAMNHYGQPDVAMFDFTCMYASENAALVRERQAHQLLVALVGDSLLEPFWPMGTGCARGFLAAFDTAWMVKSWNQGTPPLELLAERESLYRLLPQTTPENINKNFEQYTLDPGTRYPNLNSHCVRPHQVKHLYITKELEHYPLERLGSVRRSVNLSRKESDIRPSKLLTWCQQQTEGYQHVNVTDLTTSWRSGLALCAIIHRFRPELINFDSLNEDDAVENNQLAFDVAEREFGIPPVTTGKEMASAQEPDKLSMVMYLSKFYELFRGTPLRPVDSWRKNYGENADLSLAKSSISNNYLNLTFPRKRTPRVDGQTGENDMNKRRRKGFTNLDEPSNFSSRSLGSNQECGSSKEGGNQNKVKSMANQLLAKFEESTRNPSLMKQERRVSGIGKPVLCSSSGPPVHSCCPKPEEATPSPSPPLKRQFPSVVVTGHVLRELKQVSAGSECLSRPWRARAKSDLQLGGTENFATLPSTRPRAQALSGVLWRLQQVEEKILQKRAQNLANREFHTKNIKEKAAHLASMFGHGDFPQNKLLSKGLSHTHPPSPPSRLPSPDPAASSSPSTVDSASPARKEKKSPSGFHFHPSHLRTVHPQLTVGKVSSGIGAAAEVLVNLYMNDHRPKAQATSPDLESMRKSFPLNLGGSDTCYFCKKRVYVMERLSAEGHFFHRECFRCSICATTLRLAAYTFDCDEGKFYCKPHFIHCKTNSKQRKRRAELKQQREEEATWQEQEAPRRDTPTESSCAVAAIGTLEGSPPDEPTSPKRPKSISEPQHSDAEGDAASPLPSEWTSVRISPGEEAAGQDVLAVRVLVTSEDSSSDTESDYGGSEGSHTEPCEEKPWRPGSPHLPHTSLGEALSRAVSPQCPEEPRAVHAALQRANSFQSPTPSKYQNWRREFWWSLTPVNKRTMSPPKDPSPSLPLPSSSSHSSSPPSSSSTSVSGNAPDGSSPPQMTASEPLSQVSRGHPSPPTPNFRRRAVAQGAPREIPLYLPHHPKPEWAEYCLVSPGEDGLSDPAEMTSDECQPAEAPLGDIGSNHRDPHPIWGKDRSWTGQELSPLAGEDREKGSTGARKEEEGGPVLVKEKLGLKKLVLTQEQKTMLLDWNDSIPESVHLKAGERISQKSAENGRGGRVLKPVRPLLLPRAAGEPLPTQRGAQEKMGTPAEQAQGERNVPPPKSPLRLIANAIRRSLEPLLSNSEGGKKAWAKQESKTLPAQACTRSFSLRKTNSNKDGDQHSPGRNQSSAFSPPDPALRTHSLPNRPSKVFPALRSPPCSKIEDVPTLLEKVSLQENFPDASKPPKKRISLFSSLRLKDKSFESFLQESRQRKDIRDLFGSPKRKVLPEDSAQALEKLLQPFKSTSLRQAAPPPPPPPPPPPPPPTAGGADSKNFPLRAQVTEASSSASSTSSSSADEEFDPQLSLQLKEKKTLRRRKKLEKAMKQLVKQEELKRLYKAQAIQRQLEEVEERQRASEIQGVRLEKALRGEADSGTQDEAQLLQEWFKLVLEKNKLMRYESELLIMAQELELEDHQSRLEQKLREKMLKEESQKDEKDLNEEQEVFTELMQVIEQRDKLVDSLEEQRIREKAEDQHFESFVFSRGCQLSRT
UniProt Q8TB72: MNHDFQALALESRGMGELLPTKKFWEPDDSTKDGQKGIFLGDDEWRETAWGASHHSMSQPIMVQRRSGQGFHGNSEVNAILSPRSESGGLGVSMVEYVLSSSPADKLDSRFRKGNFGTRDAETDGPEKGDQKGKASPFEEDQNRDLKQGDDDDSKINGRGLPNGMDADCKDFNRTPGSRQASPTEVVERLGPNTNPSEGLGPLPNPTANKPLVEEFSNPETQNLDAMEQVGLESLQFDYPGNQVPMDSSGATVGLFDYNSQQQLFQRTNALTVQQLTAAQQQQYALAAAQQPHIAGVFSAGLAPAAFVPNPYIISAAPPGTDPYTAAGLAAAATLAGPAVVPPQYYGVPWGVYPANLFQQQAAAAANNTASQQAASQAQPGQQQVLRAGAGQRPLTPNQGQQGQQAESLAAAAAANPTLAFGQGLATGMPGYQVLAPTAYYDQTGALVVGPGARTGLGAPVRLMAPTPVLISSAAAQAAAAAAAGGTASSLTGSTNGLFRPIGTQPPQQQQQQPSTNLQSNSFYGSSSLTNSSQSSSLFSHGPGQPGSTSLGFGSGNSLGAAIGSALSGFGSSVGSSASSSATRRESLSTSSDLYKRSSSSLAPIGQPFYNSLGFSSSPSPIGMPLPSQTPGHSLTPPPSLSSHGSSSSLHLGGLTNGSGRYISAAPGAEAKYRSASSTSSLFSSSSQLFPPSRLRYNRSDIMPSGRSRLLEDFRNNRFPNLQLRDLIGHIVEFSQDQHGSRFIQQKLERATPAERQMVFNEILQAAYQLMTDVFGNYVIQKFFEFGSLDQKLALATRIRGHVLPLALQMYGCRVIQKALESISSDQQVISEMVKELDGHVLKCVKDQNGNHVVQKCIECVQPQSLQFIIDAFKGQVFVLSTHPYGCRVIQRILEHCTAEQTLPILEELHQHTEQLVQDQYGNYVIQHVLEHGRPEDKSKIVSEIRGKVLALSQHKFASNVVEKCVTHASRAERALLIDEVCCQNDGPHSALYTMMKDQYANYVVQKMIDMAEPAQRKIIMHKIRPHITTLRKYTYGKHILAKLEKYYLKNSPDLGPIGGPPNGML
UniProt Q8TAQ5: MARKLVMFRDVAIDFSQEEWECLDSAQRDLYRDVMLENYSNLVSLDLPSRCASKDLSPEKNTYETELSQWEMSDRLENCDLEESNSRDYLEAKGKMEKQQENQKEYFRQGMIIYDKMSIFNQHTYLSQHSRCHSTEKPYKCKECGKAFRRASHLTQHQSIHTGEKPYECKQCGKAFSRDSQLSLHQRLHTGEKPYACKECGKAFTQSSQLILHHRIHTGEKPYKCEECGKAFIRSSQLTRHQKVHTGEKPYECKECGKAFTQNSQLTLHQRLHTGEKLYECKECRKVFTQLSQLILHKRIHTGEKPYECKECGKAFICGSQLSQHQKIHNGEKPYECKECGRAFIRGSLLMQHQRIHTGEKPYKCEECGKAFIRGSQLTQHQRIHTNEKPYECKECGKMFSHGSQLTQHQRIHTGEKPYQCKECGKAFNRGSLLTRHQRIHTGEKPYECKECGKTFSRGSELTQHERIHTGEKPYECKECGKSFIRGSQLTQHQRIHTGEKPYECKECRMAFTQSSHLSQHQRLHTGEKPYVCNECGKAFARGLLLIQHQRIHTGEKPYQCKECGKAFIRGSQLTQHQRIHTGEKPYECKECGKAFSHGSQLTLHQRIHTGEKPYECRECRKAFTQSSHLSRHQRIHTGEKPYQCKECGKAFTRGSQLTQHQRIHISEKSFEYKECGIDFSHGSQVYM
UniProt Q9UKK3: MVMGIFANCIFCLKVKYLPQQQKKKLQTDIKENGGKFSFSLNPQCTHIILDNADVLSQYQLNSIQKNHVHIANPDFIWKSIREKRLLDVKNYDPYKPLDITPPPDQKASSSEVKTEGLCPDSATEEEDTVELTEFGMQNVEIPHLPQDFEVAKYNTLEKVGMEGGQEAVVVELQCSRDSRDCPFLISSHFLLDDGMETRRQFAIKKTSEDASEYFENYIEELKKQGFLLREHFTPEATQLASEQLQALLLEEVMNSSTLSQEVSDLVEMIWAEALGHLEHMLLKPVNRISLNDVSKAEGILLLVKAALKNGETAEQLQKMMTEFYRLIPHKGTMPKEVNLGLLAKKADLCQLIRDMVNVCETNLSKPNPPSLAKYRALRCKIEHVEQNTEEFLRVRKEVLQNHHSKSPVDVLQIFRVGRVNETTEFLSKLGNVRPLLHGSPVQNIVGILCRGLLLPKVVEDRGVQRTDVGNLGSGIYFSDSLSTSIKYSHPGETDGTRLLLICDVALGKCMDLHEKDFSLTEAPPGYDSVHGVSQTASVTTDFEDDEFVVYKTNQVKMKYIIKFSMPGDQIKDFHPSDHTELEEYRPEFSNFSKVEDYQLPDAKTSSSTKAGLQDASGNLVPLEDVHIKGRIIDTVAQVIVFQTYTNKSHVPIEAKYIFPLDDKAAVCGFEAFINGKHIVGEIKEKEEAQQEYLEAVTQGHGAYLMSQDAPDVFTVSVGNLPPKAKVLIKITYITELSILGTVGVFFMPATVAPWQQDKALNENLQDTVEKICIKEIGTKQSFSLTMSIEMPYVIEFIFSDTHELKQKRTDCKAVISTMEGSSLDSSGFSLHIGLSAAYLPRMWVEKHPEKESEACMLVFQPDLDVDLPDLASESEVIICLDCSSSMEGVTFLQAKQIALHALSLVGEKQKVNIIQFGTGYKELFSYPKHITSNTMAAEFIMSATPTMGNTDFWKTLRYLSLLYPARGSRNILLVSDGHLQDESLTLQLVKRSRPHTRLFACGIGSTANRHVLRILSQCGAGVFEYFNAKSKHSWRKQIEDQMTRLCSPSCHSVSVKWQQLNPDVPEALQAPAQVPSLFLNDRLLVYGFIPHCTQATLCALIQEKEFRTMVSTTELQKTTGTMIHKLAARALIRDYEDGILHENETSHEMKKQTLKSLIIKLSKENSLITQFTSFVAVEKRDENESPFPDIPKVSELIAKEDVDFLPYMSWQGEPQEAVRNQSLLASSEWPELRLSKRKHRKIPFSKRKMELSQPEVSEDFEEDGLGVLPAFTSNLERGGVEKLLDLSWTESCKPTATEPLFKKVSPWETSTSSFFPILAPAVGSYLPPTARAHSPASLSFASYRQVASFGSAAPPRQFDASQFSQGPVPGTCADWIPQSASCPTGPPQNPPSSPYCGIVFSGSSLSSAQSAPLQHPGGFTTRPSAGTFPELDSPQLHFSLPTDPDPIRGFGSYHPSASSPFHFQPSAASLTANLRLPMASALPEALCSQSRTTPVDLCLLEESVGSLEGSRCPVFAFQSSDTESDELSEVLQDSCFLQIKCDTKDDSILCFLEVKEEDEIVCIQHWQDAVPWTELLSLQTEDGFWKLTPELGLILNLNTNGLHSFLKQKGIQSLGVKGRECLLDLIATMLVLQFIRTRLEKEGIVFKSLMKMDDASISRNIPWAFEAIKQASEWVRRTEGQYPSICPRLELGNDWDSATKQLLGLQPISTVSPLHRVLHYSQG

## KPNB1 (from UniProt Q14974 1-876)
  binding: binds

## LMTK2 (from UniProt Q8IWU2 1-1503) (enzyme)
  binding: binds

## MICAL2 (from UniProt O94851 1-1957)
  binding: binds

## PUM1 (from UniProt Q14671 1-1186)
  binding: binds

## PUM2 (from UniProt Q8TB72 1-1066)
  binding: binds

## SLC25A1 (from UniProt P53007 14-311)
  binding: binds

## SMC5 (from UniProt Q8IY18 1-1101)
  binding: binds

## TEP1 (from UniProt Q99973 1-2627)
  binding: binds

## ZNF45 (from UniProt Q02386 1-682)
  binding: binds

## ZNF420 (from UniProt Q8TAQ5 1-688)
  binding: binds

## endogenous PARP4 of A549 cells (from UniProt Q9UKK3 1-1724) (enzyme)
  binding: binds

Source: paper doi:10.1101/2024.06.27.601040 (bioRxiv, 2024)
